The values below come from PMC3741289.

Chains of the proteins cited; added tags and fusions are not shown.
UniProt P04792: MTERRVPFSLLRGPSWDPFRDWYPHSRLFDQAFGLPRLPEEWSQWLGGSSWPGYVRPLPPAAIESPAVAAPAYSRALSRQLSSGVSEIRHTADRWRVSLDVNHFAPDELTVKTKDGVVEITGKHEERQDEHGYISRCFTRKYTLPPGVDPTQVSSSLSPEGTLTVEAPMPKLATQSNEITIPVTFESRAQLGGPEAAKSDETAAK

No constants are given. Whether binding was seen depends on the method and setting. Binding seen in cells or lysates may run through a third protein. Some entries that bind do so weakly or less than the wild type.

For assay [1], the target named is HspB1 (Hsp27) (human (endogenous in HeLa)) (UniProt P04792). In words: co-IP; as the 150 mM experiment, but washes of the immunoprecipitated proteins in IPP300 buffer (0.3 M NaCl).
Assay [2] has the same target. In words: co-IP; pooled gel filtration fractions (pool I of WT cells, pool II of R120G cells) with anti-HspB1 or anti-HspB5 antibody, 4 h at 4°C, protein G sepharose; washes in IPP150 (20 mM Tris-HCl pH 8, 150 mM NaCl, 0.05% NP-40); immunoblot of total, precipitate and depleted supernatant. For orientation: In gel filtration, larger molecules generally elute earlier.

B1: R120G mutant HspB5 (αB-crystallin) (protein, UniProt P02511 1-175)
chain: MDIAIHHPWIRRPFFPFHSPSRLFDQFFGEHLLESDLFPTSTSLSPFYLRPPSFLRAPSWFDTGLSEMRLEKDRFSVNLDVKHFSPEELKVKVLGDVIEVHGKHEERQDEHGFISREFHGKYRIPADVDPLTITSSLSSDGVLTVNGPRKQVSGPERTIPITREEKPAVTAAPKK
As to B1, the binding entry in assay [1] and in assay [2] was “binds” each time.
